Data reported in patent US20030148446A1.
No constants are given. Whether binding was seen depends on the method and setting. Some results given as binding are weak or reduced against the parent protein; the word gives no strength. Where a sequence is shown, tags or fusion partners need not be part of it.

Experiments:
[1] = target: Gal4-ANIC-BP-1 fusion protein (bait encoded by pDBLeu-ANIC-BP-1); test: yeast two-hybrid screen (Proquest, Gal4-based), bait pDBLeu-ANIC-BP-1; β-galactosidase filter assay and growth selection
[2] = target: Gal4-ANIC-BP-1 fusion protein (bait encoded by pDBLeu-ANIC-BP-1); test: yeast two-hybrid screen (Proquest, Gal4-based), bait pDBLeu-ANIC-BP-1; selection on -Trp, -Leu, -His medium with 25 mM 3-aminotriazole
[3] = target: LexA-ANIC-BP-1 fusion protein (bait encoded by pLexA-MCS-ANIC-BP-1); test: LexA-based yeast two-hybrid (Matchmaker, EGY48/pSH18-32), bait pLexA-MCS-ANIC-BP, prey pPC86-ANIC-BPligand; growth without leucine and blue colour on X-Gal

Measured: binding

B1: ANIC-BP-1 ligand (prey encoded by vector pPC86-ANIC-BPligand, Gal4-activation domain fusion) (ligand, not shown: large carriers)
chain: MGAVARAHGGLRVARARESVAGGRHRGAGRPGARAAGAAAGLVRAEAGGRRAGRGRRPGRGLPTGGGGLAAAAVGREVAQGLCDAIRLDGGLDLLLRLLQAPELETRVQAARLLEQILVAENRDRVARIGLGVILNLAKEREPVELARSGSGILEHMFKHSEETCQRLVAAGGLDAVLYWCRRTDPALLRHCALALGNCALHGGQAVQRRMVEKRAAEWLFPLAFSKEDELLSLHACLAVAVLATNKEVEREVERSGTLALVEPLVASLDPGRFARCLVDASDTSQGRGPDDLQRLVPLLDSNRLEAQCIGAFYLCAEAAIKSLQGKTKVFSDIGAIQSLKRLVSYSTNGTKSALAKRALRLLGEEVPRPILPSVPSWKEAEVQTWLQQIGFSKYCESFREQQVDGDLLLRLTEEELQTDLGMKSGITRKRFFRELTELKTFANYSTCDRSNLADWLGSLDPRFRQYTYGLVSCGLDRSLLHRVSEQQLLEDCGIHLGVHRARILTAAREMLHSPLPCTGGKPSGDTPDVFISYRRNSGSQLASLLKVHLQLHGFSVFIDVEKLEAGKFEDKLIQSVMGARNFVLVLSPGALDKCMQDHDCKDWVHKEIVTALSCGKNIVPIIDGFEWPEPQVLPEDMQAVLTFNGIKWSHEYQEATIEKIIRFLQGRSSRDSSAGSDTSLEGAAPMGPT
binds: [1] | [2] | [3]
